# PubChem BioAssay AID743454, Peter MacCallum Cancer Centre, 2014
# Test: 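Search for knock-downs that restore vorinostat killing in resistant colon cancer cells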 (primary screen)
# Cell system: human HCT116-VR colon cancer cells, selected for vorinostat resistance
# Reagent: siRNA pool against human genes, 40 nM siRNA pool
# Timing: vorinostat for 24 h, read-out about 72 h after transfection
# Treatment: vorinostat at 2.5 µM final
# Measured: 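Cell viability by CellTiter-Fluor and caspase 3/7 activity by luminescence, each scaled to mock wells per plate, duplicates averaged, then robust z-scored over all plates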
# Scale: viability robust z-score: higher = more viable cells than screen typical; caspase robust z-score: higher = more caspase 3/7 activity than screen typical
# Active means: 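a knock-down is a hit when classed RV1 or RV2 for lowered viability, or CA1 or CA2 for caspase activation; those lethal without drug were dropped; hits were retested singly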
# The whole screen tested about 18,000 reagents; this is an unselected part. 450 of them (2.5%) were called active. 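Single biological run; no consistent viability z cut-off exists, so the class columns, not z-scores, define the calls.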 Entries without a mark were called inactive. Reagent sequences are not shown.
gene,viability hit class,caspase hit class,viability robust z-score,caspase robust z-score
BCS1L,no change,no change,-0.13,-0.58
SARS2,no change,no change,-0.35,1.34
RNF112,no change,no change,-0.71,-0.68
GLG1,no change,no change,-0.09,0.84
KIR3DS1,no change,no change,2.04,0.99
MFSD6,no change,no change,0.49,-0.18
PDF,no change,no change,1.52,-0.62
HDAC5,no change,no change,-0.38,4.77
EXOG,no change,no change,0.75,1.08
BPY2B,no change,no change,1.32,3.88
SLCO1A2,no change,no change,-0.78,-0.64
CTXN3,no change,no change,1.79,0.18
ACADSB,no change,no change,1.77,-0.49
CORO6,no change,no change,-0.01,0.42
THAP8,no change,no change,-1.02,0.42
ZNF160,no change,no change,-0.48,-0.89
SLC25A29,no change,no change,-0.35,1.11
C9,no change,no change,0.24,-0.06
NLGN1,no change,no change,-0.34,-0.42
OR13C2,no change,no change,1.7,1.65
WDFY2,no change,no change,-0.55,2.66
HLA-DQA1,no change,no change,-2.13,2.09
CREB3,no change,no change,-0.86,-0.1
BMI1,no change,no change,0.3,-0.88
AKAP1,no change,no change,1.15,0.49
LSM5,no change,no change,-1.19,-0.55
GATAD2A,no change,no change,0.08,4.22
IQCB1,no change,no change,-2.24,3.24
KRTAP6-3,no change,no change,0.14,1.15
NOTCH2,no change,no change,1.4,0.36
CRAT,no change,no change,0.63,1.7
GULP1,no change,no change,0.12,-1.05
SLC15A2,no change,no change,1.19,-0.91
LY6E,no change,no change,-0.66,-0.31
ZNF700,no change,no change,0.2,0.9
MAN1A1,no change,no change,1.48,0.38
STX7,no change,no change,2.21,-0.15
SELENOT,no change,no change,0.48,1.82
NEXN,no change,no change,0.76,0.44
SYPL2,no change (active),CA2 (caspase activation),-1.25,8.58
GIMAP5,no change,no change,-0.91,-0.04
AMOTL1,no change,no change,-0.42,-0.2
BUD31,no change,no change,-2.08,1.09
PROM1,no change,no change,0.32,1.25
UBXN2A,no change,no change,0.58,-0.54
DPYS,no change,no change,0.94,-0.76
SEC24B,no change,no change,-0.31,-0.52
OR7E24,no change,no change,-0.3,-0.6
CANT1,no change,no change,0.65,0.22
L3MBTL4,no change,no change,0.31,-1.04
CHN2,no change,no change,-1.31,-1.04
AMBRA1,no change,no change,-0.82,4
MAX,no change,no change,-0.48,-0.1
TRMT44,no change,no change,-0.34,-0.4
ZDHHC23,no change,no change,1.3,0.76
ZMPSTE24,no change,no change,-0.29,0.02
BAALC,no change,no change,0.52,1.73
FADS2,no change,no change,-0.28,0.72
RAB25,no change,no change,-1.47,0.84
TCOF1,no change,no change,1.08,2.52
PPM1G,no change,no change,1.76,-0.19
POLD1,no change,no change,-0.17,0.97
MRPL41,no change,no change,0.09,-0.55
FHOD1,no change,no change,-0.24,1.49
SAXO5,no change,no change,-1.24,0.29
OR10X1,no change,no change,0.04,-0.77
MED19,no change,no change,0.87,-0.44
NCAPD2,no change,no change,0.38,-0.39
ERMAP,no change,no change,-0.7,-0.42
FAIM2,no change,no change,0.12,-0.48
CSTF2T,no change,no change,-0.44,1.9
CDC42BPG,no change,no change,-0.08,-1
TMEM87A,no change,no change,-0.25,-0.7

Reagents listed above with an active call:
gene,viability hit class,caspase hit class,viability robust z-score,caspase robust z-score
SYPL2,no change (active),CA2 (caspase activation),-1.25,8.58
